The results in this text go back to PubChem BioAssay AID192 (DTP/NCI, 2004).

The test system of this test is BDF1 mice, B16 melanoma ip, median survival T/C. Kind of test: NCI In Vivo Anticancer Drug Screen. Data for tumor model B16 Melanoma (intraperitoneal) in B6D2F1 (BDF1) mice. The note with it: T/C endpoint: median survival time, higher T/C = longer survival. Summed up:
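Transplantable tumor model; survival or tumor size measured; reported as T/C, treated over vehicle control.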

The list is a part of this screen's results and no random one: it is rich in T/C values a quarter to a half above the control, in often repeated tests (any T/C) and in doses without a T/C. Further doses and runs are listed elsewhere. T/C gives the treated animals as a percentage of the vehicle group. Some doses have a count of surviving animals in place of a T/C: the source holds a T/C of zero for them, seemingly a mark for toxic or unscored doses. Some doses without a T/C left all or most animals alive at the check, yet need not have been tolerated: survival well below the control is almost never listed, so the zero probably covers shortened survival too. Counts of survivors are from the toxicity check (mostly the fifth day) where no day follows; animals may have died later. Schedules are NCI's codes, read here as Q, the interval in days (D) or hours (H), X, the number of doses. For survival time, the PubChem record calls one and a half times the control and up active, and a quarter to a half above the control has no call in these data; cut-offs in other NCI protocols can differ.

In the case of `COC1=C(N)C(=O)c2nc(-c3nc(C(=O)O)c(C)c(-c4ccc(OC)c(OC)c4O)c3N)ccc2C1=O`, the survivor count reads like this: (dose: 0.8 mg/kg/injection, schedule: Q01DX009 (ip), vehicle: saline) 10 of 10; (dose: 400.0 micrograms/kg/injection, schedule: Q01DX009 (ip), vehicle: saline) 10 of 10; (dose: 800.0 micrograms/kg/injection, schedule: Q01DX009 (ip), vehicle: saline) 10 of 10.

Take `COc1cc2ccc3c[n+](C)ccc3c2cc1OC`: the survivor count (dose: 200.0 mg/kg/injection, schedule: Q01DX009 (ip), vehicle: water) is given as 3 of 10.

For `O=C1NC(=O)C2C3C=CC(C12)C1C2C(=O)NC(=O)C2C31` (configuration not stated), the T/C is 126 % of control (dose: 25.0 mg/kg/injection, schedule: Q01DX009 (ip), vehicle: suspension in saline) and 131 % of control (dose: 50.0 mg/kg/injection, schedule: Q01DX009 (ip), vehicle: suspension in saline). The survivor count runs as follows: (dose: 100.0 mg/kg/injection, schedule: Q01DX009 (ip), vehicle: suspension in saline) 10 of 10; (dose: 200.0 mg/kg/injection, schedule: Q01DX009 (ip), vehicle: suspension in saline) 6 of 10.

Consider `O=C(Nc1ccccc1C(F)(F)F)c1cccc(C(=O)Nc2ccccc2C(F)(F)F)c1`, for which, for the setting “dose: 400.0 mg/kg/injection, schedule: Q04DX003 (ip), vehicle: carboxymethylcellulose (CMC)”, the survivor count is 10 of 10.

In the case of `O[C@H](c1cc(C(F)(F)F)nc2c(C(F)(F)F)cccc12)[C@@H]1CCCCN1`, the survivor count was 9 of 10 (dose: 12.5 mg/kg/injection, schedule: Q01DX009 (ip), vehicle: Klucel (hydroxypropylcellulose) (HPC)); 10 of 10 (dose: 18.0 mg/kg/injection, schedule: Q04DX003 (ip), vehicle: Klucel (hydroxypropylcellulose) (HPC)); 10 of 10 (dose: 25.0 mg/kg/injection, schedule: Q01DX009 (ip), vehicle: Klucel (hydroxypropylcellulose) (HPC)).
